The target in assay [1] is biotinylated murine CD3ε-derived peptide, complete cytoplasmic tail, doubly ITAM tyrosine phosphorylated (murine) (UniProt P22646). In words: Jurkat lysate pull-down with biotinylated CD3ε peptides and streptavidin beads, immunoblot.
In assay [2] the target is biotinylated murine CD3ε-derived peptide, complete cytoplasmic tail, non-phosphorylated (murine) (UniProt P22646). The assay is described as above.

Amino acid sequences for entries named in this document (tags omitted). Residues count along the entry.
UniProt P22646, residues 135-189: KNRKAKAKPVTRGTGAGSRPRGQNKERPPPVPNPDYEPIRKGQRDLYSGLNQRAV
UniProt P06239, residues 2-509: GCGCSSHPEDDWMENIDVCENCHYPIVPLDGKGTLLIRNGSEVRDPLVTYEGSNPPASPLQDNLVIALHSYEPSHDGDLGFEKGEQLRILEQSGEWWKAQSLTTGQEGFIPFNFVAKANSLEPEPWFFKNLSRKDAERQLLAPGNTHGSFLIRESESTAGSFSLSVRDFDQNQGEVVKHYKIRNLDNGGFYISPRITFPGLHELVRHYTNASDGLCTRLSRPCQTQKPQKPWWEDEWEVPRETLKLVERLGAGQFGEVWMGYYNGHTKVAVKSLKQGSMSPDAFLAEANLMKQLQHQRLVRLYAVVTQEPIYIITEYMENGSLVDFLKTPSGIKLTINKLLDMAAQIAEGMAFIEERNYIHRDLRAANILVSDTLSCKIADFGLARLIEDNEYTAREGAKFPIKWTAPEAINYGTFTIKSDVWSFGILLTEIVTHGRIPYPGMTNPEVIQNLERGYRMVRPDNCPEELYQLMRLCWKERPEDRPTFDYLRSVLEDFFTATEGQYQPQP

These are yes or no findings as the source states them, for the method shown. In cells and extracts the contact can be indirect. Some entries that bind do so weakly or less than the wild type.

On to “endogenous full length LCK (lymphocyte specific Src kinase) of human T cells (from UniProt P06239 2-509) (enzyme)”, for which the binding entry in assay [1] and in assay [2] was “binds” each time.

The values above are taken from patent US20230070126A1.
